Taken from: PubChem BioAssay AID504764 (Drosophila RNAi Screening Center, 2011)
In all, the deposit lists about 22,000 reagents; below is an unselected part of those with a known target gene and a result. Over the whole deposit, 403 (1.9%) got an active call. 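Unnormalised raw counts per well; ratio z-scores behind the hit calls and whether each hit raises or lowers signal are not deposited.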 The numbers tell different reagents against one gene apart. A plus sign joins genes that one reagent is predicted to hit. No sequences are given here. Not stated in the record: the amount of reagent.

Purpose: 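Genes whose knock-down alters Notch-dependent transcription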 (primary screen)
System: Drosophila Kc167 cells
Knock-down reagent: long dsRNA against Drosophila genes
Duration: about 5 days (4 days dsRNA, then 24 h after transfection)
Challenge: transfection of constitutively active membrane-tethered Notch lacking the extracellular domain, read 24 h later
Detection: 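Light from a Notch-responsive E(spl)m3 luciferase reporter under active Notch, with control-promoter and no-Notch reporter wells to normalise; raw counts from paired wells a and b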
Reading the numbers: induced reporter light, run 1, well a and induced reporter light, run 1, well b: higher = more light from the Notch target reporter with active Notch; control promoter light, run 1, well a and control promoter light, run 1, well b: higher = more light from the viral control promoter (cell number, transfection, viability); uninduced reporter light, run 1, well a: higher = more light from the Notch target reporter without active Notch
Rule for the call: 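Hit if the duplicate-averaged log2 ratio of induced to control-promoter light gives a plate-wise z beyond ±2, or induced to uninduced beyond ±1.8; weak-control or discordant-duplicate wells dropped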
Meaning of the calls: active = modifier hit (raised or lowered Notch signal); inactive = not a hit

AspRS-m scored induced reporter light, run 1, well a = 1.15e5; induced reporter light, run 1, well b = 1.37e5; control promoter light, run 1, well a = 1.47e5; control promoter light, run 1, well b = 1.41e5; uninduced reporter light, run 1, well a = 10510; inactive.
With knock-down of TfIIEbeta, the screen gave induced reporter light, run 1, well a = 77870; induced reporter light, run 1, well b = 1.57e5; control promoter light, run 1, well a = 1.82e5; control promoter light, run 1, well b = 1.61e5; uninduced reporter light, run 1, well a = 9925; inactive.
Silencing of CG7149 came out at: induced reporter light, run 1, well a = 1.62e5; induced reporter light, run 1, well b = 1.60e5; control promoter light, run 1, well a = 1.58e5; control promoter light, run 1, well b = 1.60e5; uninduced reporter light, run 1, well a = 14735; inactive.
For TwdlZ, the entry reads induced reporter light, run 1, well a = 95020; induced reporter light, run 1, well b = 98600; control promoter light, run 1, well a = 86890; control promoter light, run 1, well b = 76250; uninduced reporter light, run 1, well a = 7015; inactive.
Silencing of djl gave: induced reporter light, run 1, well a = 65800; induced reporter light, run 1, well b = 91565; control promoter light, run 1, well a = 78420; control promoter light, run 1, well b = 57320; uninduced reporter light, run 1, well a = 7075; inactive.
With knock-down of CG12081, the screen gave induced reporter light, run 1, well a = 1.69e5; induced reporter light, run 1, well b = 1.86e5; control promoter light, run 1, well a = 2.02e5; control promoter light, run 1, well b = 1.86e5; uninduced reporter light, run 1, well a = 13460; inactive.
Silencing of NtR gave: induced reporter light, run 1, well a = 58795; induced reporter light, run 1, well b = 37230; control promoter light, run 1, well a = 34645; control promoter light, run 1, well b = 49490; uninduced reporter light, run 1, well a = 1595; inactive.
et showed induced reporter light, run 1, well a = 93495; induced reporter light, run 1, well b = 1.09e5; control promoter light, run 1, well a = 1.24e5; control promoter light, run 1, well b = 1.12e5; uninduced reporter light, run 1, well a = 10790; inactive.
With knock-down of CG33013 (retired record), the record shows induced reporter light, run 1, well a = 1.01e5; induced reporter light, run 1, well b = 1.11e5; control promoter light, run 1, well a = 1.29e5; control promoter light, run 1, well b = 1.29e5; uninduced reporter light, run 1, well a = 8955; inactive.
With knock-down of Debcl, the record shows induced reporter light, run 1, well a = 85580; induced reporter light, run 1, well b = 74400; control promoter light, run 1, well a = 54230; control promoter light, run 1, well b = 73880; uninduced reporter light, run 1, well a = 5850; inactive.
After knock-down of mod, the screen gave induced reporter light, run 1, well a = 1.69e5; induced reporter light, run 1, well b = 1.77e5; control promoter light, run 1, well a = 2.46e5; control promoter light, run 1, well b = 2.15e5; uninduced reporter light, run 1, well a = 14315; inactive.
After knock-down of CG13605, the record shows induced reporter light, run 1, well a = 1.94e5; induced reporter light, run 1, well b = 1.63e5; control promoter light, run 1, well a = 2.59e5; control promoter light, run 1, well b = 2.45e5; uninduced reporter light, run 1, well a = 14665; inactive.
With knock-down of CG11349, the record shows induced reporter light, run 1, well a = 1.06e5; induced reporter light, run 1, well b = 87390; control promoter light, run 1, well a = 98410; control promoter light, run 1, well b = 89305; uninduced reporter light, run 1, well a = 4005; inactive.
Knock-down of Nmnat resulted in: induced reporter light, run 1, well a = 1.44e5; induced reporter light, run 1, well b = 1.19e5; control promoter light, run 1, well a = 2.25e5; control promoter light, run 1, well b = 2.05e5; uninduced reporter light, run 1, well a = 13855; inactive.
Depletion of sordd2 + sordd1 resulted in: induced reporter light, run 1, well a = 1.66e5; induced reporter light, run 1, well b = 1.62e5; control promoter light, run 1, well a = 2.02e5; control promoter light, run 1, well b = 2.08e5; uninduced reporter light, run 1, well a = 11015; inactive.
Against Pka-R1 #1, the entry reads induced reporter light, run 1, well a = 89230; induced reporter light, run 1, well b = 83260; control promoter light, run 1, well a = 51050; control promoter light, run 1, well b = 54565; uninduced reporter light, run 1, well a = 6695; inactive.
Pka-R1 #2 scored induced reporter light, run 1, well a = 96530; induced reporter light, run 1, well b = 1.10e5; control promoter light, run 1, well a = 81800; control promoter light, run 1, well b = 91915; uninduced reporter light, run 1, well a = 8610; inactive.
After knock-down of Ir7b, the screen gave induced reporter light, run 1, well a = 1.29e5; induced reporter light, run 1, well b = 1.67e5; control promoter light, run 1, well a = 2.87e5; control promoter light, run 1, well b = 2.72e5; uninduced reporter light, run 1, well a = 12528; inactive.

2 of these entries, reformatted:
{"target": "CG12081", "dsRNA no.": 1, "induced reporter light, run 1, well a": 1.69e5, "induced reporter light, run 1, well b": 1.86e5, "control promoter light, run 1, well a": 2.02e5, "control promoter light, run 1, well b": 1.86e5, "uninduced reporter light, run 1, well a": 13460, "Call": "inactive"}
{"target": "NtR", "dsRNA no.": 1, "induced reporter light, run 1, well a": 58795, "induced reporter light, run 1, well b": 37230, "control promoter light, run 1, well a": 34645, "control promoter light, run 1, well b": 49490, "uninduced reporter light, run 1, well a": 1595, "Call": "inactive"}
